This experiment deals with T1, BRAT1-3xFlag (Bromodomain and ATPase domain-containing protein 1, AT1G05910) (Arabidopsis thaliana) (UniProt F4IAE9).
T1 sequence: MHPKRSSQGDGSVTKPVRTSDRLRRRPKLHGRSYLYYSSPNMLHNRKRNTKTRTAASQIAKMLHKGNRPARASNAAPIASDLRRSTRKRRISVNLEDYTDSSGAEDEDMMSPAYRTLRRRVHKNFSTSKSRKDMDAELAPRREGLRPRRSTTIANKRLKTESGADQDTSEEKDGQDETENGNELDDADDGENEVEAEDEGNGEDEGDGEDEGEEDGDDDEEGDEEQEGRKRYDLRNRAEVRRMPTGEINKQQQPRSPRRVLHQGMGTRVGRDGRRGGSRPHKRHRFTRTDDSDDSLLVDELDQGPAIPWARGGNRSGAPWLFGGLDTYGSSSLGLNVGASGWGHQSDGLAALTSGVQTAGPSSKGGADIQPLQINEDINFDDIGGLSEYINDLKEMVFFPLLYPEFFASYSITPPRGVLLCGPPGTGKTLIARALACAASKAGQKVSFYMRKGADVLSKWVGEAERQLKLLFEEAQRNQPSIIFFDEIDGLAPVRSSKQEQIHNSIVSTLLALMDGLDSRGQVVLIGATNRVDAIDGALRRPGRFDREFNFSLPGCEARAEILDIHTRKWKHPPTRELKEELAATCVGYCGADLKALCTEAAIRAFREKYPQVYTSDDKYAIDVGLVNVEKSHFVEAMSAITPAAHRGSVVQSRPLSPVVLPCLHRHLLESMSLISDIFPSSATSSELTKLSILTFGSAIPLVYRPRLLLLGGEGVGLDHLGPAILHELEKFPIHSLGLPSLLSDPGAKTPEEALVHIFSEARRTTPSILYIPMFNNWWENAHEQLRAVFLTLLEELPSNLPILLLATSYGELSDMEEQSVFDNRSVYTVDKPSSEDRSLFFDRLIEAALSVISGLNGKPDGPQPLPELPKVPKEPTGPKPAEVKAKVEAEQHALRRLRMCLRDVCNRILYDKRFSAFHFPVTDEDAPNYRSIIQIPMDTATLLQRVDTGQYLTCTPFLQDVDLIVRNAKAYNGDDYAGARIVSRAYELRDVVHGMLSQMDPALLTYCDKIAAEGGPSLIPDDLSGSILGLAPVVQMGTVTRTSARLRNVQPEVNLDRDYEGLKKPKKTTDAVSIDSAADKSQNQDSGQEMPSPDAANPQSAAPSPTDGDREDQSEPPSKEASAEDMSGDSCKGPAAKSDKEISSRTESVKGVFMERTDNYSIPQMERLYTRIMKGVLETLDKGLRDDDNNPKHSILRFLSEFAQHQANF
As to the kind of experiment: co-IP; Anti-Flag M2 Affinity Gel on lysate of plants from crosses carrying BRAT1-Flag and BRP1-Myc or ROS1-Myc, 4 °C 2.5 h, Lysis buffer; eluted with 3xFlag peptides; western blot. For orientation: In western blotting, separated proteins are transferred to a membrane and probed.

These are yes or no findings as the source states them, for the method shown. Binding seen in cells or lysates may run through a third protein. Sequences can lack the tags named with a protein.

B1: ROS1-Myc (5-methylcytosine DNA glycosylase ROS1) (enzyme, UniProt Q9SJQ6 1-1393)
chain: MEKQRREESSFQQPPWIPQTPMKPFSPICPYTVEDQYHSSQLEERRFVGNKDMSGLDHLSFGDLLALANTASLIFSGQTPIPTRNTEVMQKGTEEVESLSSVSNNVAEQILKTPEKPKRKKHRPKVRREAKPKREPKPRAPRKSVVTDGQESKTPKRKYVRKKVEVSKDQDATPVESSAAVETSTRPKRLCRRVLDFEAENGENQTNGDIREAGEMESALQEKQLDSGNQELKDCLLSAPSTPKRKRSQGKRKGVQPKKNGSNLEEVDISMAQAAKRRQGPTCCDMNLSGIQYDEQCDYQKMHWLYSPNLQQGGMRYDAICSKVFSGQQHNYVSAFHATCYSSTSQLSANRVLTVEERREGIFQGRQESELNVLSDKIDTPIKKKTTGHARFRNLSSMNKLVEVPEHLTSGYCSKPQQNNKILVDTRVTVSKKKPTKSEKSQTKQKNLLPNLCRFPPSFTGLSPDELWKRRNSIETISELLRLLDINREHSETALVPYTMNSQIVLFGGGAGAIVPVTPVKKPRPRPKVDLDDETDRVWKLLLENINSEGVDGSDEQKAKWWEEERNVFRGRADSFIARMHLVQGDRRFTPWKGSVVDSVVGVFLTQNVSDHLSSSAFMSLASQFPVPFVPSSNFDAGTSSMPSIQITYLDSEETMSSPPDHNHSSVTLKNTQPDEEKDYVPSNETSRSSSEIAISAHESVDKTTDSKEYVDSDRKGSSVEVDKTDEKCRVLNLFPSEDSALTCQHSMVSDAPQNTERAGSSSEIDLEGEYRTSFMKLLQGVQVSLEDSNQVSPNMSPGDCSSEIKGFQSMKEPTKSSVDSSEPGCCSQQDGDVLSCQKPTLKEKGKKVLKEEKKAFDWDCLRREAQARAGIREKTRSTMDTVDWKAIRAADVKEVAETIKSRGMNHKLAERIQGFLDRLVNDHGSIDLEWLRDVPPDKAKEYLLSFNGLGLKSVECVRLLTLHHLAFPVDTNVGRIAVRLGWVPLQPLPESLQLHLLEMYPMLESIQKYLWPRLCKLDQKTLYELHYQMITFGKVFCTKSKPNCNACPMKGECRHFASAFASARLALPSTEKGMGTPDKNPLPLHLPEPFQREQGSEVVQHSEPAKKVTCCEPIIEEPASPEPETAEVSIADIEEAFFEDPEEIPTIRLNMDAFTSNLKKIMEHNKELQDGNMSSALVALTAETASLPMPKLKNISQLRTEHRVYELPDEHPLLAQLEKREPDDPCSYLLAIWTPGETADSIQPSVSTCIFQANGMLCDEETCFSCNSIKETRSQIVRGTILIPCRTAMRGSFPLNGTYFQVNEVFADHASSLNPINVPRELIWELPRRTVYFGTSVPTIFKGLSTEKIQACFWKGYVCVRGFDRKTRGPKPLIARLHFPASKLKGQQANLA
B1: the binding entry was “no binding”.

Values taken from article PMC4899616.
